In EP0651055A2 (priority 1993, dated 1995):
At least one read-out could not be matched to a standard name with certainty.

Chains of the proteins cited; added tags and fusions are not shown. Residues count along the entry.
UniProt P22303, 32-614: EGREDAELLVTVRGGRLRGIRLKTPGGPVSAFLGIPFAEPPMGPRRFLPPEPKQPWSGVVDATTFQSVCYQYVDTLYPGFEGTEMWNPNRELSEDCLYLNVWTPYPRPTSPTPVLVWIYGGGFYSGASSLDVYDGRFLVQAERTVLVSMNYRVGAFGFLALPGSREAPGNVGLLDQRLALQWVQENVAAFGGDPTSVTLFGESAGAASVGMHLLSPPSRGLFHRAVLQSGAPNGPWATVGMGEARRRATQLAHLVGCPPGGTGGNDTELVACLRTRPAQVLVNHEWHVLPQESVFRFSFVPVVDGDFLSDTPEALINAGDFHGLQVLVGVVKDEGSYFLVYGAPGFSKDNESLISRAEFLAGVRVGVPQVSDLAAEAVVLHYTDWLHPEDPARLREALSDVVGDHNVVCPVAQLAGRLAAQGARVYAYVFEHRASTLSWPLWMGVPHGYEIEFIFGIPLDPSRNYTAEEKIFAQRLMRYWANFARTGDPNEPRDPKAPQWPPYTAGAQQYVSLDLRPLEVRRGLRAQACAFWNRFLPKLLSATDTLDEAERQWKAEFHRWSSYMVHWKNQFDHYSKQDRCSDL

Molecular target: recombinant human acetylcholinesterase (HuAChE), wild type (Homo sapiens, UniProt P22303)

CC(=O)SCC[N+](C)(C)C.[I-] [ATC, Acetylthiocholine iodide]
kapp (ATC), apparent bimolecular rate constant = kcat/KM: 28.5 x 10^-8.M^-1.min^-1
